{"source": "PubChem BioAssay AID1259254 (NCATS, 2017)", "assay": "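Genome-wide screen for genes that prevent DNA re-replication in cancer cells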 (primary screen)", "cells": "human HCT116 colorectal cancer cells", "reagent": "single siRNA against human genes", "duration": "3 days", "read-out": "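Nuclei stained with Hoechst and imaged; cell-cycle phase assigned by DNA content; G2 share scaled per plate, non-targeting siRNA 0%, GMNN siRNA 100%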", "scale": "G2 robust z-score and G2 cells, % of GMNN control: higher = more G2 cells, more excess DNA replication", "hit rule": "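An siRNA counts as active if its G2 robust z-score lies at least 5 MADs above the screen median; here such calls match roughly 38% of GMNN control or more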", "note": "This is one part, drawn at random, of about 59,000 reagents tested. About 1,550 of all reagents (2.6%) count as active. 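G2 share is only a proxy for re-replication; each gene was hit by three separate siRNAs, and active genes were retested.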 Unmarked entries are inactive. Reagents against one gene are numbered here. Further read-outs or replicates are left out here. Not stated in the record: the amount of reagent."}
{"Target gene":"CRIPT","reagent":1,"G2 robust z-score":1.05,"G2 cells, % of GMNN control":10.4}
{"Target gene":"CRIPT","reagent":2,"G2 robust z-score":4.11,"G2 cells, % of GMNN control":31.9}
{"Target gene":"CRIPT","reagent":3,"G2 robust z-score":-0.542,"G2 cells, % of GMNN control":-0.843}
{"Target gene":"MRPS25","reagent":1,"G2 robust z-score":0.473,"G2 cells, % of GMNN control":6.29}
{"Target gene":"MRPS25","reagent":2,"G2 robust z-score":-0.294,"G2 cells, % of GMNN control":0.896}
{"Target gene":"MRPS25","reagent":3,"G2 robust z-score":-0.168,"G2 cells, % of GMNN control":1.79}
{"Target gene":"TTC9B","reagent":1,"G2 robust z-score":0.631,"G2 cells, % of GMNN control":7.41}
{"Target gene":"TTC9B","reagent":2,"G2 robust z-score":3.11,"G2 cells, % of GMNN control":24.8}
{"Target gene":"TTC9B","reagent":3,"G2 robust z-score":-0.0118,"G2 cells, % of GMNN control":2.88}
{"Target gene":"HNRNPH1","reagent":1,"G2 robust z-score":2.43,"G2 cells, % of GMNN control":20.1}
{"Target gene":"HNRNPH1","reagent":2,"G2 robust z-score":0.865,"G2 cells, % of GMNN control":9.05}
{"Target gene":"HNRNPH1","reagent":3,"G2 robust z-score":0.147,"G2 cells, % of GMNN control":4}
{"Target gene":"OGG1","reagent":1,"G2 robust z-score":0.173,"G2 cells, % of GMNN control":4.19}
{"Target gene":"OGG1","reagent":2,"G2 robust z-score":-0.408,"G2 cells, % of GMNN control":0.0981}
{"Target gene":"OGG1","reagent":3,"G2 robust z-score":0.514,"G2 cells, % of GMNN control":6.59}

3 successive reagents already listed:
{"Target gene":"OGG1","reagent":1,"G2 robust z-score":0.173,"G2 cells, % of GMNN control":4.19}
{"Target gene":"OGG1","reagent":2,"G2 robust z-score":-0.408,"G2 cells, % of GMNN control":0.0981}
{"Target gene":"OGG1","reagent":3,"G2 robust z-score":0.514,"G2 cells, % of GMNN control":6.59}

Next entries follow.
{"Target gene":"POLR3A","reagent":1,"G2 robust z-score":-0.253,"G2 cells, % of GMNN control":1.19}
{"Target gene":"POLR3A","reagent":2,"G2 robust z-score":1.51,"G2 cells, % of GMNN control":13.6}
{"Target gene":"POLR3A","reagent":3,"G2 robust z-score":0.15,"G2 cells, % of GMNN control":4.02}
{"Target gene":"CSTF2T","reagent":1,"G2 robust z-score":1.6,"G2 cells, % of GMNN control":14.2}
{"Target gene":"CSTF2T","reagent":2,"G2 robust z-score":-1.08,"G2 cells, % of GMNN control":-4.6}
{"Target gene":"CSTF2T","reagent":3,"G2 robust z-score":-0.157,"G2 cells, % of GMNN control":1.86}
{"Target gene":"C1QL2","reagent":1,"G2 robust z-score":1.69,"G2 cells, % of GMNN control":14.8}
{"Target gene":"C1QL2","reagent":2,"G2 robust z-score":"5.22 (active)","G2 cells, % of GMNN control":39.7}
{"Target gene":"C1QL2","reagent":3,"G2 robust z-score":0.767,"G2 cells, % of GMNN control":8.36}
